# Experimental data taken from the supplement of paper PMC10849652.
# The chains behind the UniProt entries cited, without tags or fusion partners. Where a name states a change or a piece, a line headed by the entry shows the natural chain unless it says otherwise.
# UniProt P47897: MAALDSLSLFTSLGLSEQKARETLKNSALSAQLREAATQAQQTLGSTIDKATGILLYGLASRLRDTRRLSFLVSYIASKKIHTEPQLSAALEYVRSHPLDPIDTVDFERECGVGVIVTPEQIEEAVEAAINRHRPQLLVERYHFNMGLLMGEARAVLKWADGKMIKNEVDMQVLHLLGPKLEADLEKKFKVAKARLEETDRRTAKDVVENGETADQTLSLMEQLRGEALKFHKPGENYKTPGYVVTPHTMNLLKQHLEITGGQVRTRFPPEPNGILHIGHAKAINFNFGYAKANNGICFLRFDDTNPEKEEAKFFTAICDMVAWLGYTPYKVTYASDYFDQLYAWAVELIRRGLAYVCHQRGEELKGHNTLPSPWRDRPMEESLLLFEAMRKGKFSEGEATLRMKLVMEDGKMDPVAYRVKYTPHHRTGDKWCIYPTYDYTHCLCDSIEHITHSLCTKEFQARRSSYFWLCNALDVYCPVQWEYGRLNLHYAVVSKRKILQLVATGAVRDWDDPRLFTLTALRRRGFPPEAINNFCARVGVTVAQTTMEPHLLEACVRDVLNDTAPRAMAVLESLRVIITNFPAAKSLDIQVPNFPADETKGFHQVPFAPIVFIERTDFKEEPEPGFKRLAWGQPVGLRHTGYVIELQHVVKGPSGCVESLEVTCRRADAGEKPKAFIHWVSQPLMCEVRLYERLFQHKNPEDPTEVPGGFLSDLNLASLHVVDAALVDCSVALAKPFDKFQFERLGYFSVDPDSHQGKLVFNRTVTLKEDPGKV
# UniProt P06737: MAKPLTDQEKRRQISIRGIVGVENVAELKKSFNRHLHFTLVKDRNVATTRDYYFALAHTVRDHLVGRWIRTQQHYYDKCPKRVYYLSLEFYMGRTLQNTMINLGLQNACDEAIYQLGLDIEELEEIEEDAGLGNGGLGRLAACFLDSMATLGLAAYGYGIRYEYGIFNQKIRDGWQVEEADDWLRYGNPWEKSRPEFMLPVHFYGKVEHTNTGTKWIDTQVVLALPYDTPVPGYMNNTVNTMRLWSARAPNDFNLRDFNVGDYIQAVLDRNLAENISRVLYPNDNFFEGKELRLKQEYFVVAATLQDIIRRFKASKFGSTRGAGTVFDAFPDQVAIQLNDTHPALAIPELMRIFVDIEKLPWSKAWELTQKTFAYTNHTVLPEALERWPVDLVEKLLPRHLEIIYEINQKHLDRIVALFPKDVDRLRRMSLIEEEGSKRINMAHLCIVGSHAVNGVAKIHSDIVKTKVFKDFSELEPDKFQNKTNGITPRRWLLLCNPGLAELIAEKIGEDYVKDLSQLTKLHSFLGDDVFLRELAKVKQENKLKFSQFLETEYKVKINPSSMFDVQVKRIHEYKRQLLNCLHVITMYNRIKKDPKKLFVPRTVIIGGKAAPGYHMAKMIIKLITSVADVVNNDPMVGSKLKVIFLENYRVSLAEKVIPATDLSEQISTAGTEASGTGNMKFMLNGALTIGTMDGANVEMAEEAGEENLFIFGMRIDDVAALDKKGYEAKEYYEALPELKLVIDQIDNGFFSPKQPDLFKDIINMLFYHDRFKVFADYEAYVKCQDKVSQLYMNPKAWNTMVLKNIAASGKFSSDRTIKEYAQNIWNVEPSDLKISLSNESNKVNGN
# UniProt Q6VN20, whole entry, looked up: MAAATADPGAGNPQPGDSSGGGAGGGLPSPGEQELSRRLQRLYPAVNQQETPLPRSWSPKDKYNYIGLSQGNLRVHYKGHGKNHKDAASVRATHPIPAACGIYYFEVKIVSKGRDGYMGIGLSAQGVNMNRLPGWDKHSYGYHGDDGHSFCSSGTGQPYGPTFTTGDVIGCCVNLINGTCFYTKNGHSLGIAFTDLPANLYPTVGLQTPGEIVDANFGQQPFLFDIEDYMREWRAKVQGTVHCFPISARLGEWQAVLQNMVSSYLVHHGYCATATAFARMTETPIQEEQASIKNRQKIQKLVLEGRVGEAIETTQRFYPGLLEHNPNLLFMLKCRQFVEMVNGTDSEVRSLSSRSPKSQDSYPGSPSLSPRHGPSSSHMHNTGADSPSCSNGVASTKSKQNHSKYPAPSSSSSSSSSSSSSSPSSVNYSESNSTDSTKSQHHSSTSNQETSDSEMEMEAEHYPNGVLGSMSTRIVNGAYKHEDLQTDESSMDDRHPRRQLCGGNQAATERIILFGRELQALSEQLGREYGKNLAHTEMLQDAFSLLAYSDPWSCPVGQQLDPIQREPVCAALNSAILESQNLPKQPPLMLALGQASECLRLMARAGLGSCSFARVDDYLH
# UniProt Q8WU10: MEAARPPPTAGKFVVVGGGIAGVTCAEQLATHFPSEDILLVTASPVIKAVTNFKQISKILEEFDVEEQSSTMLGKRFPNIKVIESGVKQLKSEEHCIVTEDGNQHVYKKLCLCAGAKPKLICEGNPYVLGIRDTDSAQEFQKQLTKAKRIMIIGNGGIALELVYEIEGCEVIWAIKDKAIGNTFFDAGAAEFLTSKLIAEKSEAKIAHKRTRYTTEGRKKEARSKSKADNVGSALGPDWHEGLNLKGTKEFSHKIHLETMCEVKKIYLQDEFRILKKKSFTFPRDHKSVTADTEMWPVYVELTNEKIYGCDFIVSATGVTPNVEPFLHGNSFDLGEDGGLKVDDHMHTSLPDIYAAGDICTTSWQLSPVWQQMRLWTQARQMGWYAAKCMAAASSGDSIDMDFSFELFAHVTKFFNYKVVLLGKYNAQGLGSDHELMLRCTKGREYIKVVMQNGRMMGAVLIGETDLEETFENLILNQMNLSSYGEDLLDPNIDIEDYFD
# UniProt Q9H2T7: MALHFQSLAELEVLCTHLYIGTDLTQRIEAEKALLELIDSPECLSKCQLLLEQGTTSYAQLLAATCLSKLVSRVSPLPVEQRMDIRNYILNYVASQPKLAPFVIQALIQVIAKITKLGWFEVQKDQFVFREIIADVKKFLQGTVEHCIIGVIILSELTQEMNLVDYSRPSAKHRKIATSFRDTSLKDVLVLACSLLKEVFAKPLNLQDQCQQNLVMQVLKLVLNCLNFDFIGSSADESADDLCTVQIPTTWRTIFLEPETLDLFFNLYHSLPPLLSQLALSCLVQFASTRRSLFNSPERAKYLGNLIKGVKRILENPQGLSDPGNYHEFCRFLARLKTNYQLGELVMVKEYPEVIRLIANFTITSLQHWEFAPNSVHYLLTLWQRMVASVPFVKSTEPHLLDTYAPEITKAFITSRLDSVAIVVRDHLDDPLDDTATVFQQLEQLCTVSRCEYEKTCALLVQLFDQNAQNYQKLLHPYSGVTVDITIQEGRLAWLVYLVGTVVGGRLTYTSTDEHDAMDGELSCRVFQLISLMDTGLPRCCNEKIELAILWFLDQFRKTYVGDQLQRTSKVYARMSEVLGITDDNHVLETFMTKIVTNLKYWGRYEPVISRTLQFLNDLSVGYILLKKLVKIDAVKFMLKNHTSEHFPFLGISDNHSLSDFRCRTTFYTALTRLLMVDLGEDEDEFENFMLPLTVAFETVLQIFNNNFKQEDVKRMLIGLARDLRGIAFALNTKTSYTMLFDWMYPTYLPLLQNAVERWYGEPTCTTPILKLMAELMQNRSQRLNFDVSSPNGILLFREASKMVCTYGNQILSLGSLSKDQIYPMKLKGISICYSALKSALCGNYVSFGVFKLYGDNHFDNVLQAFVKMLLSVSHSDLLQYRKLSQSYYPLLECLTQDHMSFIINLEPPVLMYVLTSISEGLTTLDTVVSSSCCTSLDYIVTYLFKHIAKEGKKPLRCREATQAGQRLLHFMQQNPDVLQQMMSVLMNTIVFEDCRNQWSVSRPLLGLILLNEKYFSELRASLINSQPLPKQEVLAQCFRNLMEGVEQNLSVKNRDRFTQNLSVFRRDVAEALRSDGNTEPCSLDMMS
# UniProt Q92696: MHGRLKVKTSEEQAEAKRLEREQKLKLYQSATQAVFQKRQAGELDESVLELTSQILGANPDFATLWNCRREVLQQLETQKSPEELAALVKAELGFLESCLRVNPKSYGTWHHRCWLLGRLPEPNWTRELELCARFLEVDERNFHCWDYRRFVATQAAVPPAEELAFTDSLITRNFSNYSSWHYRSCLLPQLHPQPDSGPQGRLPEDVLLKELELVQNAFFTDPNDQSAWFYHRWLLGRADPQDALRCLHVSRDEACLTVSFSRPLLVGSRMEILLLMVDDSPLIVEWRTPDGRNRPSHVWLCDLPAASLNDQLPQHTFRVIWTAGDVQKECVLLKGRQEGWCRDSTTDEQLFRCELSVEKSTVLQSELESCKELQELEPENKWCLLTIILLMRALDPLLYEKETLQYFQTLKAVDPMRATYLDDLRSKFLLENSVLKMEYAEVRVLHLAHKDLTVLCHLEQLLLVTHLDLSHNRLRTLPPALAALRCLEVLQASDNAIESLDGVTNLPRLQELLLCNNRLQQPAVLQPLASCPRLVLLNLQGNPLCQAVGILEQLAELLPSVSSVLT
# UniProt Q9H0H5: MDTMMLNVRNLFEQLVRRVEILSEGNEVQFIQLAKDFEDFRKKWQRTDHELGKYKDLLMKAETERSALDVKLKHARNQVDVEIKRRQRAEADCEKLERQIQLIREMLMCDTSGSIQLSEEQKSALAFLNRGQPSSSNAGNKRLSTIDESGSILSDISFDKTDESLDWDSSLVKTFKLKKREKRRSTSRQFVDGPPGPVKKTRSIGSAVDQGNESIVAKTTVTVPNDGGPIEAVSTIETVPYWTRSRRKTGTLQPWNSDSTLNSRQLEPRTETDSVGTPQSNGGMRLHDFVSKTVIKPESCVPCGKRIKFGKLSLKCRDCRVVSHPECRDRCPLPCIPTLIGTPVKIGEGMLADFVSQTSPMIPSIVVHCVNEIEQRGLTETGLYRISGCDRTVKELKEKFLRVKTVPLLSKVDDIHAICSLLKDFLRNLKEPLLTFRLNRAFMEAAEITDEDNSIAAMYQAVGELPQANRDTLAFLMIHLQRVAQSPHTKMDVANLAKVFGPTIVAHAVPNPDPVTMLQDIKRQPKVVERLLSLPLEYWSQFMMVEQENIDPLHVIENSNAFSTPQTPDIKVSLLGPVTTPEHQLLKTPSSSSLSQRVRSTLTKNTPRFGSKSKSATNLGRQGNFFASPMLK
# UniProt Q15276: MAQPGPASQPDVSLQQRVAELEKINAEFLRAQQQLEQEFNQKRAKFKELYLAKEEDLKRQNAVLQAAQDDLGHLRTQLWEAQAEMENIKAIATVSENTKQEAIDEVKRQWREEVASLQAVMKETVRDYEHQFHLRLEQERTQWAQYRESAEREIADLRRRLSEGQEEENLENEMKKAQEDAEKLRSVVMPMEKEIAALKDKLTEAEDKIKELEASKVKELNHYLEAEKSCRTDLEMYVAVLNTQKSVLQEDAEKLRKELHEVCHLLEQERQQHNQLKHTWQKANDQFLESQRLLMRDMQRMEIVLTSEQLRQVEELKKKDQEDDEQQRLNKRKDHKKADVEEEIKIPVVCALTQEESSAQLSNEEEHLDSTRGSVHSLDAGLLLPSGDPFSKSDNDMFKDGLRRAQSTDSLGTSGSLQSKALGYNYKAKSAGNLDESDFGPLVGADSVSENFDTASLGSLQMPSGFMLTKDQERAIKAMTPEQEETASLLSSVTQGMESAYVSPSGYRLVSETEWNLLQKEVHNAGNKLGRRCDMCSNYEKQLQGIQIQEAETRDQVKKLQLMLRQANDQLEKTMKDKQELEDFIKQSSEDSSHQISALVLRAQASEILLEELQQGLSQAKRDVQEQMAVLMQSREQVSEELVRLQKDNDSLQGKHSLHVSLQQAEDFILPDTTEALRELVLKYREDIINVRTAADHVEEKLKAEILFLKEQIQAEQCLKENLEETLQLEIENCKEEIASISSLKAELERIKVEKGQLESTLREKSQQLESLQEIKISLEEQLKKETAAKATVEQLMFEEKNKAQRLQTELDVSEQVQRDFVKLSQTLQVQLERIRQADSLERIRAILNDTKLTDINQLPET
# UniProt Q9H974: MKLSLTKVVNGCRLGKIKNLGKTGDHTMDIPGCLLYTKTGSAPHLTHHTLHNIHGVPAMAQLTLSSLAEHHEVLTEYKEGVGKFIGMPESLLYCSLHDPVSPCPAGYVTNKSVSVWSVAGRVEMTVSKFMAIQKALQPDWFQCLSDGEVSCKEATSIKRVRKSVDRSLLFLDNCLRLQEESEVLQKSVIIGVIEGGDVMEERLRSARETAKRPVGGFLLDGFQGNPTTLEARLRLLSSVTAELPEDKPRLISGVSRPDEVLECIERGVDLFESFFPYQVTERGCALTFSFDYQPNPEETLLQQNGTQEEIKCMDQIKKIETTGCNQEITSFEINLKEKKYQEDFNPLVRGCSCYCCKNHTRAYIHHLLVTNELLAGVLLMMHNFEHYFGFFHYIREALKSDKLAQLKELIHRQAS
# UniProt Q8WUD1: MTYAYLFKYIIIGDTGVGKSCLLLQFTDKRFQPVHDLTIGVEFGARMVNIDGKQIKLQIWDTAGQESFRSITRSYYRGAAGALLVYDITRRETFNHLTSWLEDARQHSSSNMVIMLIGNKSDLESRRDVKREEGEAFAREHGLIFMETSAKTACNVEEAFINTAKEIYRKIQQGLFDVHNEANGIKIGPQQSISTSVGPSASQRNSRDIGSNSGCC
# This is one part of the list.
# Legend:
# Experiment in all cases: log2 fold change, soluble protein after heating vs DMSO (PISA); higher = thermal stabilisation; K562 lysate, 10 uM; active = over 0.2 and 3.5 SD of the protein, either way, in both replicates (recomputed)
# ibrutinib = compound: C=CC(=O)N1CCC[C@@H](n2nc(-c3ccc(Oc4ccccc4)cc3)c3c(N)ncnc32)C1 [ibrutinib]
# Method in brief: (§1)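 Soluble protein was defined as the supernatant remaining after 21,000xg for 90 min, following pooling of heated aliquots and adjustment to 0.5% NP-40 at 4°C. Before that, crude K562 extract at 1 mg/mL protein in PBS pH 7.4 with 1 mM MgCl2 was treated with 10 μM compound for 30 min and heated for 3 min across 48°C-58°C. Quantification used TMTpro 16plex LC-MS/MS with channel sums equalised, and values are log-two fold changes in thermal stability relative to solvent controls from duplicates.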
# [1] = compound: CC(=O)c1cnc2ccc(-c3cc(Cl)c(O)c(Cl)c3)nc2c1N[C@H]1CC[C@H](CN(C)C)CC1
# Method in brief: as §1
# ralimetinib = compound: CC(C)(C)Cn1c(N)nc2ccc(-c3[nH]c(C(C)(C)C)nc3-c3ccc(F)cc3)nc21 [ralimetinib]
# Method in brief: as §1
# [2] = compound: CC(C)(O)CC(=O)NCCn1ccc2ncnc(Nc3ccc(Oc4cccc(C(F)(F)F)c4)c(Cl)c3)c21
# Method in brief: as §1
# [3] = compound: CC(C)C1=C2N=C(C=C(N2N=C1)NCC3=CC=CC=C3)NCCCCCCN
# Method in brief: as §1
# [4] = compound: CC1=C(C(CC(=O)N1)C2=CC=C(C=C2)C(F)(F)F)C(=O)NC3=C(C=C4C(=C3)C=NN4)F
# Method in brief: as §1
# [5] = compound: CC1=C(C2=C(C=C1)C(=O)C3=CC=CC=C3N2CCCN)C
# Method in brief: as §1
# [6] = compound: CC1=C(C=C(C=C1)NC(=O)C2=CC(=CC=C2)C(C)(C)C#N)NC3=CC4=C(C=C3)N=CN(C4=O)C
# Method in brief: as §1
# [7] = compound: CC1=C(C=C(C=C1)NC(=O)C2=CC(=CC=C2)N(C)C)NC(=O)C3=CC=C(C=C3)O
# Method in brief: as §1
# [8] = compound: CC1=CC=C(C=C1)SC2=C3C=C(SC3=CN=C2)C(=O)N
# Method in brief: as §1
# vemurafenib = compound: CCCS(=O)(=O)Nc1ccc(F)c(C(=O)c2c[nH]c3ncc(-c4ccc(Cl)cc4)cc23)c1F [vemurafenib]
# Method in brief: as §1
# [9] = compound: CCCS(=O)(=O)Nc1ccc(F)c(C(=O)c2c[nH]c3ncc(Cl)cc23)c1F
# Method in brief: as §1
# barasertib = compound: CCN(CCCOc1ccc2c(Nc3cc(CC(=O)Nc4cccc(F)c4)[nH]n3)ncnc2c1)CCOP(=O)(O)O [barasertib]
# Method in brief: as §1
# [10] = compound: CC[C@@H]1C(=O)N(C)c2cnc(Nc3ccc(C(=O)NC4CCN(C)CC4)cc3OC)nc2N1C1CCCC1
# Method in brief: as §1
# volasertib = compound: CC[C@@H]1C(=O)N(C)c2cnc(Nc3ccc(C(=O)N[C@H]4CC[C@H](N5CCN(CC6CC6)CC5)CC4)cc3OC)nc2N1C(C)C [volasertib]
# Method in brief: as §1
# [11] = compound: CCn1c(C(=O)N(C2CC2)C2CC2)cc2c3c(ncn3C)c(Nc3cc(C)n(C)n3)nc21
# Method in brief: as §1
# [12] = compound: CCn1cc(-c2ccnc3[nH]c(-c4cccc(CN(C)C)c4)cc23)c(-c2ccc(NC(=O)N(C)C)cc2)n1
# Method in brief: as §1
# [13] = compound: CN1CCC(CNc2ccc3ncc(-c4cccc(OC(F)(F)F)c4)n3n2)CC1
# Method in brief: as §1
# saracatinib = compound: CN1CCN(CCOc2cc(OC3CCOCC3)c3c(Nc4c(Cl)ccc5c4OCO5)ncnc3c2)CC1 [saracatinib]
# Method in brief: as §1
# sotrastaurin = compound: CN1CCN(c2nc(C3=C(c4c[nH]c5ccccc45)C(=O)NC3=O)c3ccccc3n2)CC1 [sotrastaurin]
# Method in brief: as §1
Target,log2 fold change (ibrutinib),log2 fold change [1],log2 fold change (ralimetinib),log2 fold change [2],log2 fold change [3],log2 fold change [4],log2 fold change [5],log2 fold change [6],log2 fold change [7],log2 fold change [8],log2 fold change (vemurafenib),log2 fold change [9],log2 fold change (barasertib),log2 fold change [10],log2 fold change (volasertib),log2 fold change [11],log2 fold change [12],log2 fold change [13],log2 fold change (saracatinib),log2 fold change (sotrastaurin)
QARS (UniProt P47897),inactive: -0.014,inactive: 0.001,inactive: 0.027,inactive: 0.015,inactive: 0.005,inactive: -0.039,inactive: 0.014,inactive: -0.013,inactive: 0.019,inactive: 0.032,inactive: 0.021,inactive: 0.013,inactive: 0.042,inactive: -0.019,inactive: -0.071,inactive: 0.048,inactive: -0.044,inactive: -0.076,inactive: 0.002,inactive: 0.03
PYGL (UniProt P06737),inactive: -0.013,inactive: 0.014,inactive: 0.025,inactive: 0.031,inactive: -0.01,inactive: -0.018,inactive: 0.035,inactive: 0.013,inactive: -0.011,inactive: 0.016,inactive: -0.013,inactive: 0,inactive: -0.002,inactive: -0.103,inactive: -0.003,inactive: 0.018,inactive: -0.058,inactive: 0.034,inactive: -0.006,inactive: -0.007
RANBP10 (UniProt Q6VN20),inactive: 0.022,inactive: 0.009,inactive: 0.01,inactive: -0.001,inactive: 0.021,inactive: -0.001,inactive: -0.02,inactive: 0.069,inactive: 0.02,inactive: -0.023,inactive: 0.078,inactive: 0.052,inactive: 0.056,inactive: 0.075,inactive: 0.044,inactive: -0.065,inactive: -0.003,inactive: -0.032,inactive: -0.021,inactive: -0.009
RANBP9 (UniProt Q96S59),inactive: -0.02,inactive: -0.028,inactive: -0.005,inactive: -0.054,inactive: 0.082,inactive: 0.021,inactive: 0.005,inactive: 0.024,inactive: 0.053,inactive: -0.013,inactive: 0.01,inactive: 0.01,inactive: 0.01,inactive: 0.002,inactive: 0.004,inactive: -0.004,inactive: -0.013,inactive: 0.026,inactive: 0.012,inactive: 0.027
PXMP2 (UniProt Q9NR77),inactive: -0.018,inactive: -0.006,inactive: -0.003,inactive: 0.019,inactive: -0.004,inactive: 0.015,inactive: -0.029,inactive: 0.04,inactive: -0.029,inactive: 0,inactive: 0.006,inactive: 0.016,inactive: 0.1,inactive: 0.071,inactive: 0.038,inactive: 0.045,inactive: -0.136,inactive: 0.017,inactive: -0.027,inactive: 0.027
QSOX2 (UniProt Q6ZRP7),inactive: 0.04,inactive: 0.001,inactive: 0.016,inactive: -0.046,inactive: -0.028,inactive: 0.043,inactive: 0.005,inactive: 0.04,inactive: -0.008,inactive: 0.009,inactive: 0.027,inactive: 0.015,inactive: 0.031,inactive: 0.019,inactive: 0.012,inactive: -0.018,inactive: -0.11,inactive: 0.061,inactive: 0.05,inactive: -0.042
PYROXD1 (UniProt Q8WU10),inactive: -0.02,inactive: -0.148,inactive: 0.032,inactive: 0.069,inactive: 0.029,inactive: 0.039,inactive: -0.007,inactive: -0.053,inactive: -0.015,inactive: 0.035,inactive: 0.011,inactive: 0.068,inactive: 0.076,inactive: 0.044,inactive: -0.098,inactive: -0.011,inactive: 0.1,inactive: 0.249,inactive: 0.017,inactive: -0.014
RANBP17 (UniProt Q9H2T7),inactive: 0.055,inactive: 0.023,inactive: -0.046,inactive: -0.057,inactive: -0.035,inactive: -0.049,inactive: 0.011,inactive: 0.048,inactive: 0.013,inactive: 0.012,inactive: 0.108,inactive: 0.009,inactive: -0.33,inactive: -0.123,inactive: 0.014,inactive: -0.024,inactive: -0.034,inactive: 0.173,inactive: 0.012,inactive: 0.116
RABGGTA (UniProt Q92696),inactive: -0.011,inactive: -0.002,inactive: 0.002,inactive: -0.037,inactive: -0.015,inactive: -0.035,inactive: 0.023,inactive: 0.029,inactive: 0.05,inactive: 0.032,inactive: -0.008,inactive: 0.007,inactive: 0.039,inactive: 0.002,inactive: -0.037,inactive: 0.003,inactive: -0.087,inactive: 0.08,inactive: -0.008,inactive: -0.027
RACGAP1 (UniProt Q9H0H5),inactive: -0.007,inactive: -0.014,inactive: 0.012,inactive: 0.008,inactive: 0.012,inactive: 0.064,inactive: -0.02,inactive: 0.037,inactive: 0.039,inactive: -0.115,inactive: -0.053,inactive: -0.002,inactive: 0.005,inactive: 0.034,inactive: -0.165,inactive: -0.004,inactive: -0.007,inactive: -0.047,inactive: 0.046,inactive: -0.005
RAB22A (UniProt Q9UL26),inactive: 0.02,inactive: -0.081,inactive: 0.022,inactive: -0.023,inactive: -0.021,inactive: 0.055,inactive: -0.055,inactive: -0.007,inactive: -0.026,inactive: 0.13,inactive: 0.018,inactive: 0.018,inactive: 0.038,inactive: 0.041,inactive: -0.019,inactive: -0.009,inactive: -0.025,inactive: 0.065,inactive: -0.011,inactive: 0.047
RABEP1 (UniProt Q15276),inactive: 0.007,inactive: -0.01,inactive: -0.018,inactive: -0.044,inactive: -0.023,inactive: 0.009,inactive: -0.021,inactive: 0.004,inactive: 0.003,inactive: -0.023,inactive: -0.002,inactive: 0.006,inactive: -0.025,inactive: 0.029,inactive: 0.017,inactive: -0.017,inactive: -0.032,inactive: 0.053,inactive: 0.001,inactive: 0.007
RAPGEF1 isoform 3 (UniProt Q13905),inactive: 0.008,inactive: -0.011,inactive: -0.055,inactive: 0.018,inactive: -0.066,inactive: -0.059,inactive: 0.007,inactive: -0.059,inactive: 0.079,inactive: -0.019,inactive: -0.02,inactive: 0.055,inactive: -0.07,inactive: -0.041,inactive: -0.029,inactive: -0.044,inactive: 0.074,inactive: -0.069,inactive: -0.028,inactive: 0.06
QTRT2 isoform 4 (UniProt Q9H974),inactive: 0.01,inactive: 0.002,inactive: 0.014,inactive: -0.028,inactive: -0.014,inactive: -0.035,inactive: 0.006,inactive: -0.025,inactive: -0.003,inactive: -0.013,inactive: 0.003,inactive: 0.012,inactive: 0.004,inactive: -0.022,inactive: 0.036,inactive: -0.035,active: -0.318,active: 0.227,inactive: 0.016,inactive: 0.013
PXK (UniProt Q7Z7A4),inactive: -0.024,inactive: 0,inactive: 0.042,inactive: -0.002,inactive: -0.053,inactive: -0.019,inactive: -0.044,inactive: 0.008,inactive: -0.008,inactive: 0.009,inactive: 0.028,inactive: 0.019,inactive: 0.042,inactive: -0.003,inactive: -0.034,inactive: 0.022,inactive: -0.066,inactive: 0.086,inactive: -0.03,inactive: -0.036
RAB2B (UniProt Q8WUD1),inactive: 0.01,inactive: 0.011,inactive: 0.006,inactive: -0.026,inactive: 0.01,inactive: -0.018,inactive: -0.005,inactive: 0.008,inactive: -0.012,inactive: -0.008,inactive: -0.006,inactive: 0.014,inactive: 0.025,inactive: 0.046,inactive: 0.008,inactive: -0.023,inactive: 0.002,inactive: 0.032,inactive: 0.003,inactive: -0.049

# Part of the list above, tab-delimited:
Target	log2 fold change (ibrutinib)	log2 fold change [1]	log2 fold change (ralimetinib)	log2 fold change [2]	log2 fold change [3]	log2 fold change [4]	log2 fold change [5]	log2 fold change [6]	log2 fold change [7]	log2 fold change [8]	log2 fold change (vemurafenib)	log2 fold change [9]	log2 fold change (barasertib)	log2 fold change [10]	log2 fold change (volasertib)	log2 fold change [11]	log2 fold change [12]	log2 fold change [13]	log2 fold change (saracatinib)	log2 fold change (sotrastaurin)
PYGL (UniProt P06737)	inactive: -0.013	inactive: 0.014	inactive: 0.025	inactive: 0.031	inactive: -0.01	inactive: -0.018	inactive: 0.035	inactive: 0.013	inactive: -0.011	inactive: 0.016	inactive: -0.013	inactive: 0	inactive: -0.002	inactive: -0.103	inactive: -0.003	inactive: 0.018	inactive: -0.058	inactive: 0.034	inactive: -0.006	inactive: -0.007
QTRT2 isoform 4 (UniProt Q9H974)	inactive: 0.01	inactive: 0.002	inactive: 0.014	inactive: -0.028	inactive: -0.014	inactive: -0.035	inactive: 0.006	inactive: -0.025	inactive: -0.003	inactive: -0.013	inactive: 0.003	inactive: 0.012	inactive: 0.004	inactive: -0.022	inactive: 0.036	inactive: -0.035	active: -0.318	active: 0.227	inactive: 0.016	inactive: 0.013
